About 6,100 (1.1%) of roughly 580,000 compounds were called active. This list was built around the results that the source calls inconclusive (neither active nor inactive); the mix of calls is not that of the screen. Calls follow the shape of the dose curve; as a rule, active = well fitted inhibition curve with a large enough effect; inconclusive = small, poorly fitted or top-dose-only effect, or another doubt; inactive = no such curve, though single readings can be large or run the other way. Where the call is inconclusive, the potency comes from a doubtful curve fit.
The compounds below were run against Polyunsaturated fatty acid lipoxygenase ALOX12 (Homo sapiens) (UniProt P18054) (assay: Primary qHTS assay for inhibitors of human arachidonate 12S-lipoxygenase (ALOX12): Round 2). Settings: purified 12hLO, xylenol orange hydroperoxide absorbance; activity change, negative = inhibition: at 108 µM (top of the series) unless noted.
How it was run: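 Purified human 12hLO (150 nM final) in 25 mM Hepes, 0.01% Triton X-100, pH 7.0 was preincubated 15 min at room temperature with compound. Then 40 uM arachidonic acid was added, 30 min. Hydroperoxide was read by Fe-XO absorbance ratio 573/405 nm.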
% is scaled to controls: 0 for no effect and ±100 for the full control effect; potency is read from the fitted curve at half-maximal effect.

Sequences of proteins named here, by UniProt entry; tags and fusion partners are left off.
UniProt P18054, whole entry, looked up: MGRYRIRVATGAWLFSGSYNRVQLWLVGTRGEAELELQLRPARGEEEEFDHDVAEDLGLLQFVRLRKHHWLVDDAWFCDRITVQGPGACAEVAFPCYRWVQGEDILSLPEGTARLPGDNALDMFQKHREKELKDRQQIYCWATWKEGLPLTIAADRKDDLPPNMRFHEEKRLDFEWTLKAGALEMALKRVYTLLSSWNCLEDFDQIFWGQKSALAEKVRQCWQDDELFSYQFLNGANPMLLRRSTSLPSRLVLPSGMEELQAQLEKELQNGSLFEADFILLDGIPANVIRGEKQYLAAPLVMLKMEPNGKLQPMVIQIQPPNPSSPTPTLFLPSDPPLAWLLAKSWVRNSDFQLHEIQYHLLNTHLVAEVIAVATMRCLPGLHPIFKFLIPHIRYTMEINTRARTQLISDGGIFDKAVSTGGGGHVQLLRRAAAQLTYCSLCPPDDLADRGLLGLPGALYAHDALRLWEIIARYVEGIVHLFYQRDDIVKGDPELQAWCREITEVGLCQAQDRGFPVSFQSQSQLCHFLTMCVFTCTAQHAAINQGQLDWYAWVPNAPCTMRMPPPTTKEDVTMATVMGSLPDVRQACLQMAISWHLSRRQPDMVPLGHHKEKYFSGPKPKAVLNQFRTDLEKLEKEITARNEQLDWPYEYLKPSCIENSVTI

SMILES | Potency | activity change, negative = inhibition
CC(=O)c1cccc(NC(=O)c2ccc(C(=O)Nc3cccc(C(C)=O)c3)nc2)c1 | inconclusive: 0.501 µM [inhibitor, full curve] | 
CCSC(C)CC1CC(=O)CC(=O)C1 (stereo not given) | inconclusive: 39.8 µM [inhibitor, partial curve, poor fit] | 
O=C(NC(=S)NCC1CCCO1)c1ccccc1 (stereo not given) | inconclusive: 112 µM [inhibitor, partial curve, poor fit] | 
Cc1ccc(C)c(NC(=S)N/N=C/C(C)c2ccccc2)c1 (stereo not given) | inconclusive: 112 µM [inhibitor, single point] | 
CCOC(=O)c1c(C)c(C(=O)Nc2ccc(N(C)C)cc2)c(C)n1CC | inconclusive: 17.8 µM [inhibitor, partial curve, poor fit] | 
COC(=O)c1cc2c(ccn2-c2ccc(F)cc2)n1Cc1ccc(C#N)cc1 | inconclusive: 79.4 µM [inhibitor, single point] | 
COc1ccc(CCNC(=O)CNC(=O)c2ccc(Br)o2)cc1OC | inconclusive: 7.08 µM [inhibitor, full curve, poor fit] | 
CCCCNC(=O)CC(c1cccc(OC)c1OC)c1c[nH]c2ccccc12 (stereo not given) | inconclusive: 17.8 µM [inhibitor, full curve] | 
COc1cc(/C=C2\SC(=Nc3ccc(Cl)c(C(=O)O)c3)NC2=O)c(Br)c(Br)c1O | inconclusive: 44.7 µM [inhibitor, partial curve, poor fit] | 
COC(=O)C1(C(=O)OC)C2CCCCC2N(S(=O)(=O)c2ccc(C)cc2)[C@@H]1CC(C)=O (stereo not given in full) |  | inactive: 5.93%
CC1=C(c2ccc(Cl)cc2)S(=O)(=O)N=C1N1CCN(c2cccc(C(F)(F)F)c2)CC1 | inconclusive: 56.2 µM [inhibitor, partial curve, poor fit] | 
Cc1ccc(C(=O)CNc2cccc(Cl)c2)cc1 | inconclusive: 50.1 µM [inhibitor, partial curve, poor fit] | 
Cc1ccc(-n2nc(C(=O)N3CCOCC3)cc2-c2ccc(Cl)cc2)cc1 | inconclusive: 50.1 µM [inhibitor, single point] | 
Cc1cc(C)c2c(=O)cc(C(=O)N(Cc3ccccc3)Cc3ccco3)oc2c1 |  | inactive: -11%
COc1cc(C)cc2oc(=O)c(CC(=O)NCCCn3ccnc3)c(C)c12 |  | inactive: 7.7%
COc1ccccc1N1CCN(c2ccc(-c3nc(-c4ccccc4C)no3)cc2[N+](=O)[O-])CC1 |  | inactive: -20.9%
CCOC(=O)c1cc(-c2ccc(S(=O)(=O)Nc3cccc(Cl)c3C)s2)on1 | inconclusive: 112 µM [inhibitor, partial curve, poor fit] | 
CC(O)(c1ccc(F)c(F)c1)c1nc(-c2cc3ccccc3o2)cs1 (stereo not given) | inconclusive: 50.1 µM [inhibitor, partial curve, poor fit] | 
CC(C#N)(NC(=O)CSc1ccc2ccccc2n1)C1CC1 (stereo not given) | inconclusive: 79.4 µM [inhibitor, partial curve, poor fit] | 
COc1ccc(-n2nc(C(=O)NCC(=O)N3CCCCCC3)c3ccccc3c2=O)cc1 | inconclusive: 2.24 µM [inhibitor, full curve] | 

Structures listed so far with bromine, in the order listed:
SMILES | Potency | activity change, negative = inhibition
COc1ccc(CCNC(=O)CNC(=O)c2ccc(Br)o2)cc1OC | inconclusive: 7.08 µM [inhibitor, full curve, poor fit] | 
COc1cc(/C=C2\SC(=Nc3ccc(Cl)c(C(=O)O)c3)NC2=O)c(Br)c(Br)c1O | inconclusive: 44.7 µM [inhibitor, partial curve, poor fit] | 

Next entries

SMILES | Potency | activity change, negative = inhibition
Clc1ccc(N=c2ssnc2Cl)nc1 | inconclusive: 2.51 µM [inhibitor, full curve, poor fit] | 
COc1c(C)cnc(CN2CCN(C(C(=O)O)c3c[nH]c4ccc(Br)cc34)CC2)c1C (stereo not given) |  | inactive: 12.5%
COc1ccc(S(=O)(=O)N2[C@@H]3CC[C@H]2CC(NC(=O)c2ccc(F)cc2)C3)cc1 (stereo not given in full) | inconclusive: 11.2 µM [inhibitor, full curve, poor fit] | 
COC(=O)[C@@]1(C(C)C)N=C(c2cc(OC)c(OC)c(OC)c2)[C@]2(O1)C(=O)N(C)c1ccc(Br)cc12 | inconclusive: 1.12 µM [inhibitor, full curve, poor fit] | 
COC(=O)C1CCN(Cc2ccc3c(c2)CN(C(=O)c2ccc4nc(C)c(C)nc4c2)CCO3)CC1 | inconclusive: 100 µM [inhibitor, single point] | 
O=C1CCN(S(=O)(=O)c2ccccc2)C2CCCCC12 (stereo not given) |  | inactive: 0%
OC(c1ccc(F)cc1)c1nc(-c2csc3ccccc23)cs1 (stereo not given) |  | inactive: -25.3%
CC(C)(C)OC(=O)N/N=C/c1cccc(Cl)c1Cl |  | inactive: 19.2%
CCn1c(O)c(/C=C/C=C/C=Nc2ccccc2)sc1=S | inconclusive: 17.8 µM [inhibitor, partial curve] | 
Cc1cccc(N2CCN(C(=O)Cn3cnc4sc(C)c(S(=O)(=O)N5CCN(c6ncccn6)CC5)c4c3=O)CC2C)c1 (stereo not given) | inconclusive: 44.7 µM [inhibitor, partial curve, poor fit] | 
S=C1SCN(Cc2ccccc2)CN1Cc1ccco1 | active: 35.5 µM | 
Cc1c(CC(=O)O)c(=O)oc2c(C)c(OCc3cccc(Cl)c3)ccc12 | inconclusive: 100 µM [inhibitor, partial curve, poor fit] | 
Cc1ccc(S(=O)(=O)N(C)C)cc1NC(=O)COC(=O)CCC1CCCC1 | inconclusive: 31.6 µM [inhibitor, partial curve, poor fit] | 
COCCN(C(=O)COC(=O)/C=C/c1ccc(SC)cc1)c1c(N)n(Cc2ccccc2)c(=O)[nH]c1=O | inconclusive: 44.7 µM [inhibitor, partial curve, poor fit] | 
COc1ccccc1NC(=O)COc1ccc(/C=N/n2cnnc2)cc1OC |  | inactive: 1.37%
C=CCn1c(SCC(=O)OCc2ccccc2)nc2c1c(=O)n(C)c(=O)n2C | inconclusive: 35.5 µM [inhibitor, single point] | 
O=C1C(=O)c2ccccc2C(O)=C1CC=C(Cl)Cl | inconclusive: 50.1 µM [inhibitor, partial curve, poor fit] | 
COc1ccc(NC(=O)C(C)n2nnc3sc(-c4ccccc4)cc3c2=O)cc1Cl (stereo not given) | inconclusive: 28.2 µM [inhibitor, partial curve, poor fit] | 
COc1ccc(Nc2nc(NCCN3CCOCC3)nc(Nc3ccc(OC)cc3)n2)cc1 | inconclusive: 39.8 µM [inhibitor, single point] | 
COc1cccc(NC(=O)CSc2nc3ccsc3c(=O)[nH]2)c1 | inconclusive: 50.1 µM [inhibitor, partial curve, poor fit] | 

— PubChem BioAssay AID1671190 (National Center for Advancing Translational Sciences (NCATS), 2021)
